According to the supplement of paper PMC10849652:
This is one part of the list.

Chains of the proteins cited; added tags and fusions are not shown. Lines headed by an entry give the natural chain unless they say otherwise; changes in a name come on top.
UniProt P62068, whole entry, looked up: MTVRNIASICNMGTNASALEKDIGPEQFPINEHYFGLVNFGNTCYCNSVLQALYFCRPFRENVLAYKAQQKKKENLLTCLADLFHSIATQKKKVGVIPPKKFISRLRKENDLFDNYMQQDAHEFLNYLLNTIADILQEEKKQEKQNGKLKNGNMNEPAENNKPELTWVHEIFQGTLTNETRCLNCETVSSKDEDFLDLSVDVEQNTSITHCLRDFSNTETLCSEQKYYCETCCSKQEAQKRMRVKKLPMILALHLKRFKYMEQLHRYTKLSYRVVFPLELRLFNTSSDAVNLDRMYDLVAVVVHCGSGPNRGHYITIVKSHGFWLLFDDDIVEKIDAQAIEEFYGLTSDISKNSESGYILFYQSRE
UniProt Q16851: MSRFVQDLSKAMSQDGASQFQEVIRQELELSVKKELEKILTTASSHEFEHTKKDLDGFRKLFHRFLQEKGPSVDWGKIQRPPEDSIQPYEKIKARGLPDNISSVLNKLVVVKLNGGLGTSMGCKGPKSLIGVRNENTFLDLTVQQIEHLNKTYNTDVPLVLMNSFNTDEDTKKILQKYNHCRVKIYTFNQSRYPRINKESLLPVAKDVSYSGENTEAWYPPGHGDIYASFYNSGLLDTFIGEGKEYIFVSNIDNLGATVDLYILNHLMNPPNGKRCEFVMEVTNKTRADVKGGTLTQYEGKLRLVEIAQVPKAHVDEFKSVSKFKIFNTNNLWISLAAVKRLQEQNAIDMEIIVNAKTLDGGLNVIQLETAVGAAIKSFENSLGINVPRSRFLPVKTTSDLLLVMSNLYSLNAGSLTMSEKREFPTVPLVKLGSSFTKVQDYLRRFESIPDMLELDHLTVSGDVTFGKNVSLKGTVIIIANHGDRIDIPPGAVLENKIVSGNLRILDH
UniProt Q9H867: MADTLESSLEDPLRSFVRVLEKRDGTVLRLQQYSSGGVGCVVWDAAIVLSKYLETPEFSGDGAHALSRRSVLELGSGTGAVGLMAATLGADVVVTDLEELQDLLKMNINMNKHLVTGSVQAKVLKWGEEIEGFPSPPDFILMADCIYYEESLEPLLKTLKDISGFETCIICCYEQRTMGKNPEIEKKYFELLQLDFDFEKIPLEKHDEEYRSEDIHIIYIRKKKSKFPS
UniProt Q9NQZ2: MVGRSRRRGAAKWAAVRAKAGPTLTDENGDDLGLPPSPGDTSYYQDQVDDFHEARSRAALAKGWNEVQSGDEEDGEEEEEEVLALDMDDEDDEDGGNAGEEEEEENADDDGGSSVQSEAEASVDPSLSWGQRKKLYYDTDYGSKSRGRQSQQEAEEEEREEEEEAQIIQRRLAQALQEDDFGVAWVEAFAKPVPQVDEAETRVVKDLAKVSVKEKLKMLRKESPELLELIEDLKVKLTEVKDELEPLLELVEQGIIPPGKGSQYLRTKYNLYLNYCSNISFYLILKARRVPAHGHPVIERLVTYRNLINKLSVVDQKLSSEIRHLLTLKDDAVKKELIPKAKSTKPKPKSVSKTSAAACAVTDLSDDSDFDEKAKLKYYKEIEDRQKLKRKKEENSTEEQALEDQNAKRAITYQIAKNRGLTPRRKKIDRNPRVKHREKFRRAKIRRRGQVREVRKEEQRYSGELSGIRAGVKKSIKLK
UniProt Q9H9J4: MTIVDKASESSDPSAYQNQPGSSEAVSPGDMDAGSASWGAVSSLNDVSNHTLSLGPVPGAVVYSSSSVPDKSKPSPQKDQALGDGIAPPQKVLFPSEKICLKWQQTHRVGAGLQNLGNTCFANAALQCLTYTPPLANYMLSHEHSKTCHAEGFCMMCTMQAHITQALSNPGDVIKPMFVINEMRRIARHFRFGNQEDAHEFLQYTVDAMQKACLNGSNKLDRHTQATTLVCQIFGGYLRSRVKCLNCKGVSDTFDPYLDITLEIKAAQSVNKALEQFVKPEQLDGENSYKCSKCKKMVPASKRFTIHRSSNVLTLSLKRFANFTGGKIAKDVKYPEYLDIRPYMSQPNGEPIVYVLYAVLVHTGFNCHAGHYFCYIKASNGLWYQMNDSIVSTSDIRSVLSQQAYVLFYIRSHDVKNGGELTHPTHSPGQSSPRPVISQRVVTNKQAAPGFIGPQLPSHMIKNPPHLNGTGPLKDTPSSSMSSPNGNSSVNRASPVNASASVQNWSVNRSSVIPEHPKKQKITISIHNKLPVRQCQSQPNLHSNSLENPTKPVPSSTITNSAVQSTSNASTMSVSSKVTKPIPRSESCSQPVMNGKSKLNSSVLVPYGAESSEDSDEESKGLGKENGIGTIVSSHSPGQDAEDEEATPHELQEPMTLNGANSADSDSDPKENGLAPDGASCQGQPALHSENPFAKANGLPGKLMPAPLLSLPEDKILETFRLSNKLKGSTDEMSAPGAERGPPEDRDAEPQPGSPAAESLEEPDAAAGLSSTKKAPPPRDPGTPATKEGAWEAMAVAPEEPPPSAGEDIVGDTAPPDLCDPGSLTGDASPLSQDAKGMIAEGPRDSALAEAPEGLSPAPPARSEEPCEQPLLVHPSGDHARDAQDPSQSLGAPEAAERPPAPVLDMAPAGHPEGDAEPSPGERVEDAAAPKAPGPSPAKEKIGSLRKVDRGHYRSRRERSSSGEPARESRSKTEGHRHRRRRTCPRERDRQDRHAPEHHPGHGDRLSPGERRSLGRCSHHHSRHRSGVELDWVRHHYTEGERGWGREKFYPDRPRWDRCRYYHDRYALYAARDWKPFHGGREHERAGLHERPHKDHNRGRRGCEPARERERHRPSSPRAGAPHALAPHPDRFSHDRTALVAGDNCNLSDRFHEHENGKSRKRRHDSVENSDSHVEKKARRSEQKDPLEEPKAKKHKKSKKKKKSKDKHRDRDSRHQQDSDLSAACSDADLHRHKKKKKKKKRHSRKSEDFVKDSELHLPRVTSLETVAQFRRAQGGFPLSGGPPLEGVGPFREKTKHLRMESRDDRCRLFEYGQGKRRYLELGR
UniProt O94966: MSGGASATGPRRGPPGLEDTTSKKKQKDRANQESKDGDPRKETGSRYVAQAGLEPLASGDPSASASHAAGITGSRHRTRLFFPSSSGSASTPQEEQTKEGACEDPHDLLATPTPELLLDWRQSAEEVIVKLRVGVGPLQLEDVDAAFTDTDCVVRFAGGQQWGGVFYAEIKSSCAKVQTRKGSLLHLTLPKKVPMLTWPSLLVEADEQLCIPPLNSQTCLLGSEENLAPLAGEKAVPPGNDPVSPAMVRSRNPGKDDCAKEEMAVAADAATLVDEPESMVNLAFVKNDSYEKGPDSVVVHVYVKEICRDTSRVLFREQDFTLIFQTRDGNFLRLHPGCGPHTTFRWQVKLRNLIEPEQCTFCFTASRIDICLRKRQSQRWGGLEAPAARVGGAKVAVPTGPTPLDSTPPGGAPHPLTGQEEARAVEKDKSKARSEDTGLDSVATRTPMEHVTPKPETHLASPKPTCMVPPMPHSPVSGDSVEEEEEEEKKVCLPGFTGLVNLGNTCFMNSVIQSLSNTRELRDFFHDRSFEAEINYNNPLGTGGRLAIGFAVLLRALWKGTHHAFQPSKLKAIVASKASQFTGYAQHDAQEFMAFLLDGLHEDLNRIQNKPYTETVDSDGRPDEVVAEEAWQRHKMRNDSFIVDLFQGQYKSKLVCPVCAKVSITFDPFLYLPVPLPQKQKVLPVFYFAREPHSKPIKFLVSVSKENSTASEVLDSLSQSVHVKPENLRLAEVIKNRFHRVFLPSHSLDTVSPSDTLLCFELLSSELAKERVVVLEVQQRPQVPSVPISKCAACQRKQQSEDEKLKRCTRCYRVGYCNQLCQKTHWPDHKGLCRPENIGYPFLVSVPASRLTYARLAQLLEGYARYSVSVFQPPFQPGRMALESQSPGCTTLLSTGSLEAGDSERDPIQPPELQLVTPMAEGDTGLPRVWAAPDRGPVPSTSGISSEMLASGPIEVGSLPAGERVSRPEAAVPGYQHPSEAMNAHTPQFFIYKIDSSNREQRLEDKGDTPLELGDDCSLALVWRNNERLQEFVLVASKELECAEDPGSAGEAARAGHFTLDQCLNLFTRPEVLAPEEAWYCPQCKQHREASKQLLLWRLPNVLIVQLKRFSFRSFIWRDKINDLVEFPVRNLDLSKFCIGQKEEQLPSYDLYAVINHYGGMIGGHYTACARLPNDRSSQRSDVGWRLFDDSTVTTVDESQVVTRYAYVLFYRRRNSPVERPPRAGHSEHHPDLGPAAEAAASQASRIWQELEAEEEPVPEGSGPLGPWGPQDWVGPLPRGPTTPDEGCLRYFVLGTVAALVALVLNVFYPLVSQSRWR
UniProt Q9Y5J1: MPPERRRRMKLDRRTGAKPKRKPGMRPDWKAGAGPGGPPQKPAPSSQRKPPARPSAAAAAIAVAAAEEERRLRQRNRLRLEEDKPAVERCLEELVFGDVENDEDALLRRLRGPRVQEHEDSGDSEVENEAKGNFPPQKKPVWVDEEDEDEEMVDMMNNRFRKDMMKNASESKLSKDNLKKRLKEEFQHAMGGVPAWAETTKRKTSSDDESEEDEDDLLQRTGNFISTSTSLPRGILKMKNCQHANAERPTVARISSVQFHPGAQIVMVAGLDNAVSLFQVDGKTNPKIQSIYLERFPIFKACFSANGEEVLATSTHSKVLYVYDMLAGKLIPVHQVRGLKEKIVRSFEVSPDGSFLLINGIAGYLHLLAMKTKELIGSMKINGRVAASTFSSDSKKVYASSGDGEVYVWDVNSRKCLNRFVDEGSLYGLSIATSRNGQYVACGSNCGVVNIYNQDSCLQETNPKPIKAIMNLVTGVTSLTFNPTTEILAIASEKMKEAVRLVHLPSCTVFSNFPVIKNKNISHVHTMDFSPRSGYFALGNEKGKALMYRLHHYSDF
UniProt P06132: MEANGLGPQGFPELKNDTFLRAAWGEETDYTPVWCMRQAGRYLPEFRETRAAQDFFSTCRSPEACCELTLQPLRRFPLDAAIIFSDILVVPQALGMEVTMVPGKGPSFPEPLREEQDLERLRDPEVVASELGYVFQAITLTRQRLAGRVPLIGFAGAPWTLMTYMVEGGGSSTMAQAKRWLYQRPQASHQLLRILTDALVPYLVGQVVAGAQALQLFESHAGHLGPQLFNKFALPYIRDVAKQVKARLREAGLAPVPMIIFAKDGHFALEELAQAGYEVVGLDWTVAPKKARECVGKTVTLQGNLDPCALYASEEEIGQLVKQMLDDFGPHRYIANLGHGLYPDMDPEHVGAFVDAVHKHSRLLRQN
UniProt Q86UV5: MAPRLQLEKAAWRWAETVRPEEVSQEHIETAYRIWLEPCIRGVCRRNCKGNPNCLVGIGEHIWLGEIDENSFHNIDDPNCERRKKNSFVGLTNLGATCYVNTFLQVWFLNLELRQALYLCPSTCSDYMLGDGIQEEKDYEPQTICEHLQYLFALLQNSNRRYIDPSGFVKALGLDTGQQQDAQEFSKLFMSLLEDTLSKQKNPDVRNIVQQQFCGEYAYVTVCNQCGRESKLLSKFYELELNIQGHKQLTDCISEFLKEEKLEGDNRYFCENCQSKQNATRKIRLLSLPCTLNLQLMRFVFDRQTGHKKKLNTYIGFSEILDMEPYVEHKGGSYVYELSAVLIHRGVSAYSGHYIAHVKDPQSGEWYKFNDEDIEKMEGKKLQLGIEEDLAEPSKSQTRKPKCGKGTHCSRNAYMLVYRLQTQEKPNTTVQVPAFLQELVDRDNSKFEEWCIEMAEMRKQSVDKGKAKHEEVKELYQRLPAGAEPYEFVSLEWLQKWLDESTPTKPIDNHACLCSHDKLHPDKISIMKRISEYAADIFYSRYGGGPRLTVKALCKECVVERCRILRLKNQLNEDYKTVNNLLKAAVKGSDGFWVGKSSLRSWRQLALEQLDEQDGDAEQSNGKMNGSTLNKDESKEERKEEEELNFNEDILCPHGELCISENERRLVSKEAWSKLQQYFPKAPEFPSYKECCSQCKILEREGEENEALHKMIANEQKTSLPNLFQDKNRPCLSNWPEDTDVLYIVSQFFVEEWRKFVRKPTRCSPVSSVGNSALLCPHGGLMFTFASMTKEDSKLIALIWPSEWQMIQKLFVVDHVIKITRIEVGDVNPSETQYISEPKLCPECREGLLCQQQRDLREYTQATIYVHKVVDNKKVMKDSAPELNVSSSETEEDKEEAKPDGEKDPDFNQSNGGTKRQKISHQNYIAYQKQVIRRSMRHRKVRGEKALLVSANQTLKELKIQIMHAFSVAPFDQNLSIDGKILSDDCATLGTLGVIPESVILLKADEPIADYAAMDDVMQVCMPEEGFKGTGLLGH
UniProt P63027, whole entry, looked up: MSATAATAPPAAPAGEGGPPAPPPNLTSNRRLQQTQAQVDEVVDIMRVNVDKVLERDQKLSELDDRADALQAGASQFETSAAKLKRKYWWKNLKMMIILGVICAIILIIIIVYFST
UniProt Q9Y277: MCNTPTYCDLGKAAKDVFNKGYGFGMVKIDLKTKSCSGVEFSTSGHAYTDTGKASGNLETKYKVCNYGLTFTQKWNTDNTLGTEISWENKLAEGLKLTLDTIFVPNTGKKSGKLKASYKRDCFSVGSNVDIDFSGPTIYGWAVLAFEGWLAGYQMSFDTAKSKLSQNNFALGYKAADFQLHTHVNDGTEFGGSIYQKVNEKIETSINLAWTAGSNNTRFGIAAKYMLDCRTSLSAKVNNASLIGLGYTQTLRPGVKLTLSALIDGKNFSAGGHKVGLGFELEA

How the values were obtained:
Assay in all cases: log2 fold change, soluble protein after heating vs DMSO (PISA); higher = thermal stabilisation; K562 lysate, 10 uM; active = over 0.2 and 3.5 SD of the protein, either way, in both replicates (recomputed)
[1] = compound: C1=CC=C(C=C1)[C@H](COC2=CC3=C(C=C2)NC(=O)N3)NC(=O)C4=CC=CN(C4=O)CC5=CC(=C(C=C5)F)F
Outline: (§1)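 Log-two fold change in thermal stability relative to solvent controls is reported from duplicates. For each sample, crude K562 extract from dounce-homogenised pellets in PBS pH 7.4 with 1 mM MgCl2, at 1 mg/mL protein, was treated with 10 μM compound for 30 min. Aliquots heated for 3 min across 48°C-58°C were pooled, brought to 0.5% NP-40 at 4°C and cleared at 21,000xg for 90 min. The supernatant was quantified by TMTpro 16plex LC-MS/MS with channel sums equalised.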

[2] = compound: CC1=C(SC2=C1C(=N[C@H](C3=NN=C(N32)C)CC(=O)N)C4=CC=C(C=C4)Cl)C
Outline: as §1

[3] = compound: CC1=C2C(=CC=C1)N=C(N(C2=O)C3=CC=CC=C3C)CN4C=NC5=C(N=CN=C54)N
Outline: as §1

[4] = compound: Cc1sc2c(c1C)C(c1ccc(Cl)cc1)=N[C@@H](CC(=O)OC(C)(C)C)c1nnc(C)n1-2
Outline: as §1

[5] = compound: c1ccc([C@@H]2C[C@H]2NC2CCNCC2)cc1
Outline: as §1

Measured: log2 fold change

VAC14 (UniProt Q08AM6)
inactive: [1] -0.008 | [2] -0.008 | [3] 0.042 | [4] -0.012 | [5] 0.001

UGGT1 (UniProt Q9NYU2)
inactive: [1] 0.013 | [2] 0.021 | [3] -0.005 | [4] 0.017 | [5] 0.018

USP5 isoform 2 (UniProt P45974)
inactive: [1] 0.004 | [2] 0.002 | [3] 0.021 | [4] 0.001 | [5] -0.004

USP7 (UniProt H3BND8)
inactive: [1] -0.405 | [2] 0.009

UPF3B (UniProt Q9BZI7)
inactive: [1] 0.031 | [2] -0.008 | [3] -0.043 | [4] 0.022 | [5] -0.097

UGGT2 (UniProt Q9NYU1)
inactive: [1] -0.042 | [2] 0.058 | [3] -0.001 | [4] -0.025 | [5] 0.047

USP46 (UniProt P62068)
inactive: [1] 0.021 | [2] -0.121

UGP2 (UniProt Q16851)
inactive: [1] 0.003 | [2] 0.014 | [3] -0.009 | [4] -0.014 | [5] 0.011

VCPKMT (UniProt Q9H867)
inactive: [1] 0.011 | [2] 0.056

UTP3 (UniProt Q9NQZ2)
inactive: [1] -0.009 | [2] -0.035 | [3] 0.076 | [4] -0.158 | [5] 0.018

USP42 (UniProt Q9H9J4)
inactive: [1] -0.012 | [2] 0.072

USP19 isoform 6 (UniProt O94966)
inactive: [1] -0.007 | [2] 0.061 | [3] -0.001 | [4] 0.001 | [5] 0.029

USP5 (UniProt F5H571)
inactive: [1] -0.039 | [2] 0.011

UTP18 (UniProt Q9Y5J1)
inactive: [1] 0.117 | [2] -0.005 | [3] -0.088 | [4] -0.013 | [5] 0.059

Quoted from the entries so far (2 entries):
VCPKMT (UniProt Q9H867)
inactive: [1] 0.011 | [2] 0.056

UTP3 (UniProt Q9NQZ2)
inactive: [1] -0.009 | [2] -0.035 | [3] 0.076 | [4] -0.158 | [5] 0.018

Next results follow:

UROD (UniProt P06132)
inactive: [1] 0.016 | [2] -0.04 | [3] -0.019 | [4] -0.018 | [5] -0.074

UNKL (UniProt E9PDK2)
inactive: [1] -0.025 | [2] 0.09 | [3] 0.249 | [4] 0.022

USP48 isoform 8 (UniProt Q86UV5)
inactive: [1] 0.006 | [2] -0.016 | [3] 0.015 | [4] 0.003 | [5] 0.035

ULK3 isoform 4 (UniProt Q6PHR2)
inactive: [1] -0.015 | [2] 0.043 | [3] -0.117 | [4] -0.026 | [5] 0.125

UXS1 isoform 2 (UniProt Q8NBZ7)
inactive: [1] -0.029 | [2] -0.006 | [3] 0.01 | [4] 0.056 | [5] -0.045

UTP4 (UniProt Q969X6)
inactive: [1] 0.05 | [2] 0 | [3] -0.033 | [4] 0.026 | [5] 0.067

USF2 (UniProt Q15853)
inactive: [1] -0.027 | [2] 0.007 | [3] 0.039 | [4] 0.03 | [5] -0.04

URGCP (UniProt Q8TCY9)
inactive: [1] 0.003 | [2] 0.036 | [3] 0.044 | [4] 0.047

VAMP2 (UniProt P63027)
inactive: [1] -0.045 | [2] -0.053 | [3] -0.024 | [4] 0.014 | [5] 0.081

UGCG (UniProt Q16739)
inactive: [1] -0.041 | [2] 0.053 | [3] 0.14 | [4] 0.018

USP10 isoform 2 (UniProt Q14694)
inactive: [1] -0.038 | [2] 0.029 | [3] 0 | [4] -0.013 | [5] 0.023

VDAC3 (UniProt Q9Y277)
inactive: [1] 0.002 | [2] 0.033 | [3] 0.004 | [4] -0.041 | [5] -0.041

UQCR11 (UniProt O14957)
inactive: [1] 0.054 | [2] -0.282 | [3] 0.119 | [4] -0.022 | [5] -0.029
